In patent publication US20240016783A1, “RILUZOLE FOR THE TREATMENT OF ALZHEIMER'S DISEASE” (Icahn School of Medicine at Mount Sinai, priority 2020, published 2024):
Read-outs that look alike come from different tables or passages of the source.

Test system: Alzheimer's disease patients
[1] = FDG SUVR change, 50 mg twice a day, 6 months, n = 22
[2] = riluzole vs placebo, 6 month change in FDG PET, Cohen's d

## Nc1nc2ccc(OC(F)(F)F)cc2s1 [Riluzole, 2-Amino-6-(trifluoromethoxy)benzothiazole]
AD Progression Classifier score change, 50 mg twice a day, 6 months, n = 22
  FDG PET longitudinal change over 6 months, AD Progression score, Mean: 0.245
[1]
  FDG PET longitudinal change over 6 months, Frontal, Mean: −0.077
  FDG PET longitudinal change over 6 months, Hippocampus, Mean: −0.002
  FDG PET longitudinal change over 6 months, Orbitofrontal, Mean: 0.014
  FDG PET longitudinal change over 6 months, Parietal, Mean: −0.005
  FDG PET longitudinal change over 6 months, Post Cing-Precuneus, Mean: −0.006
  FDG PET longitudinal change over 6 months, Posterior cingulate, Mean: −0.005
  FDG PET longitudinal change over 6 months, Precuneus, Mean: (−0.007,
  FDG PET longitudinal change over 6 months, Right Hippocampus, Mean: 0.002
  FDG PET longitudinal change over 6 months, Temporal, Mean: 0.002
post-hoc subgroup, PC SUVR change (FIG. 3D), N=7 placebo and 7 riluzole
  Effect size (d), less decline than placebo, younger group: 0.96
post-hoc subgroup, PC SUVR change (FIG. 3D), N=8 placebo, 15 riluzole
  Effect size, less decline than placebo, ApoE4 carriers: 1.526
post-hoc subgroup, PC SUVR change (FIG. 3D), N=11 placebo, 7 riluzole
  Effect size (d), less decline than placebo, ApoE4 non-carriers: 0.89
post-hoc subgroup, PC SUVR change (FIG. 3D), N=13 placebo, 15 riluzole
  Effect size (d), less decline than placebo, older group: 1.370
[2]
  Effect size (d), AD Progression score: 0.57
  Effect size (d), Frontal: 0.70
  Effect size (d), Hippocampus: 0.50
  Effect size (d), Orbitofrontal: 0.86
  Effect size (d), Parietal: 0.54
  Effect size (d), Post Cing-Precuneus: 0.88
  Effect size (d), Posterior cingulate: 1.31
  Effect size (d), Precuneus: 0.84
  Effect size (d), Right Hippocampus: 0.72
  Effect size (d), Temporal (lateral temporal): 0.80
Riluzole vs placebo, 6 month change in FDG PET, Cohen's d, listed as riluzole
  Effect size (d), Frontal: 0.67
Subcortical white matter, pons, and cerebellar vermis
  Difference to placebo in control regions (FDG PET): No differences were observed
